{"source": "PubChem BioAssay AID1259308 (NCATS, 2017)", "assay": "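Candidate targets for better recombinant protein yield in mammalian cells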 (primary screen)", "system": "human HEK293 embryonic kidney cells stably expressing firefly luciferase (HEK-CMV-Luc2-Hygro)", "knock-down reagent": "single siRNA against human genes, 0.8 pmol siRNA per well", "duration": "72 h", "detection": "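Luciferase light (ONE-Glo) measured on one replicate plate set and viability (CellTiter-Glo) on the other, scaled to a negative control siRNA, with robust z-scores and luciferase per cell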", "reading the numbers": "total luciferase, z-score and total luciferase, % of control: higher = more reporter protein produced", "call rule": "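An siRNA counts as active if its total luciferase robust z-score exceeds 3; genes with two or more such siRNAs out of three were retested with fresh siRNAs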", "calls": "active = raised luciferase; inactive = no rise", "note": "The deposit covers about 59,000 reagents; this is a random part of them. About 1,510 of them (2.6%) were called active. 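Calls use total luciferase alone and ignore viability, so some active siRNAs may act by altering cell number.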 A number with no mark means an inactive call. Not all columns of the deposit are shown."}
{"gene knocked down":"FGF7P7","PubChem SID":"SID160726690","total luciferase, z-score":-0.28,"total luciferase, % of control":76.3}
{"gene knocked down":"FGF7P7","PubChem SID":"SID160726691","total luciferase, z-score":0.587,"total luciferase, % of control":93.6}
{"gene knocked down":"FGF7P7","PubChem SID":"SID160728031","total luciferase, z-score":-0.783,"total luciferase, % of control":66.3}
{"gene knocked down":"MRGPRE","PubChem SID":"SID160724744","total luciferase, z-score":2.11,"total luciferase, % of control":124}
{"gene knocked down":"MRGPRE","PubChem SID":"SID160730555","total luciferase, z-score":-1.97,"total luciferase, % of control":42.7}
{"gene knocked down":"MRGPRE","PubChem SID":"SID160755454","total luciferase, z-score":1.8,"total luciferase, % of control":118}
{"gene knocked down":"OR10X1","PubChem SID":"SID160756746","total luciferase, z-score":1.92,"total luciferase, % of control":120}
{"gene knocked down":"OR10X1","PubChem SID":"SID160756747","total luciferase, z-score":-0.217,"total luciferase, % of control":77.6}
{"gene knocked down":"OR10X1","PubChem SID":"SID160756748","total luciferase, z-score":1.6,"total luciferase, % of control":114}
{"gene knocked down":"COL17A1","PubChem SID":"SID160746571","total luciferase, z-score":0.428,"total luciferase, % of control":90.4}
{"gene knocked down":"COL17A1","PubChem SID":"SID160746583","total luciferase, z-score":-0.287,"total luciferase, % of control":76.2}
{"gene knocked down":"COL17A1","PubChem SID":"SID160746594","total luciferase, z-score":"3.97 (active)","total luciferase, % of control":161}
{"gene knocked down":"TRIM68","PubChem SID":"SID160743006","total luciferase, z-score":-0.0756,"total luciferase, % of control":80.4}
{"gene knocked down":"TRIM68","PubChem SID":"SID160743007","total luciferase, z-score":0.898,"total luciferase, % of control":99.7}
{"gene knocked down":"TRIM68","PubChem SID":"SID160743008","total luciferase, z-score":-0.868,"total luciferase, % of control":64.6}
{"gene knocked down":"SLC6A12","PubChem SID":"SID160716880","total luciferase, z-score":-0.67,"total luciferase, % of control":68.6}
{"gene knocked down":"SLC6A12","PubChem SID":"SID160716881","total luciferase, z-score":0.112,"total luciferase, % of control":84.1}
{"gene knocked down":"SLC6A12","PubChem SID":"SID160716882","total luciferase, z-score":-0.524,"total luciferase, % of control":71.5}
{"gene knocked down":"PPME1","PubChem SID":"SID160740761","total luciferase, z-score":0.27,"total luciferase, % of control":87.3}
{"gene knocked down":"PPME1","PubChem SID":"SID160740762","total luciferase, z-score":-0.262,"total luciferase, % of control":76.7}
{"gene knocked down":"PPME1","PubChem SID":"SID160740763","total luciferase, z-score":1.71,"total luciferase, % of control":116}
{"gene knocked down":"ITPR1","PubChem SID":"SID160776056","total luciferase, z-score":-0.67,"total luciferase, % of control":68.6}
{"gene knocked down":"ITPR1","PubChem SID":"SID160776057","total luciferase, z-score":0.731,"total luciferase, % of control":96.4}
{"gene knocked down":"ITPR1","PubChem SID":"SID160776058","total luciferase, z-score":0.367,"total luciferase, % of control":89.2}
{"gene knocked down":"TEAD1","PubChem SID":"SID160717887","total luciferase, z-score":-0.366,"total luciferase, % of control":74.6}
{"gene knocked down":"TEAD1","PubChem SID":"SID160717888","total luciferase, z-score":0.0954,"total luciferase, % of control":83.8}
{"gene knocked down":"TEAD1","PubChem SID":"SID160717889","total luciferase, z-score":0.308,"total luciferase, % of control":88}
{"gene knocked down":"MAGIX","PubChem SID":"SID160734958","total luciferase, z-score":-2.12,"total luciferase, % of control":39.8}
{"gene knocked down":"MAGIX","PubChem SID":"SID160749766","total luciferase, z-score":2.89,"total luciferase, % of control":139}
{"gene knocked down":"MAGIX","PubChem SID":"SID160749767","total luciferase, z-score":-0.0909,"total luciferase, % of control":80.1}
{"gene knocked down":"RFC2","PubChem SID":"SID160715817","total luciferase, z-score":0.292,"total luciferase, % of control":87.7}
{"gene knocked down":"RFC2","PubChem SID":"SID160715818","total luciferase, z-score":-1.36,"total luciferase, % of control":54.8}
{"gene knocked down":"RFC2","PubChem SID":"SID160715819","total luciferase, z-score":0.0791,"total luciferase, % of control":83.5}

As entered above.
Under “total luciferase, z-score”, TRIM68 [SID160743006] is entered as -0.0756
Entry for ITPR1 [SID160776057] in “total luciferase, % of control”: 96.4
